Values as published with doi:10.1371/journal.pone.0140310, rounded.

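Human melanoma cell lines in 1,536-well plates were treated with a pair of drugs for 72 h, then fixed, stained and imaged. The read-out is cell count (nuclei) in % of the DMSO control; lower values mean stronger growth inhibition or killing. Concentrations were fixed for each drug; these are the lower of two levels, a fifth of the higher. These are primary screening values without error estimates.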 An unselected part of the screen is shown. An entry leaves out what has no value listed here. A dash means that no value is listed here.

Drugs:
L-779450 (0.2 µM): Oc1cc(-c2nc(-c3ccccc3)[nH]c2-c2ccncc2)ccc1Cl
GW9662 (2 µM): O=C(Nc1ccccc1)c1cc([N+](=O)[O-])ccc1Cl
NVP-BEZ235 (0.004 µM): Cn1c(=O)n(-c2ccc(C(C)(C)C#N)cc2)c2c3cc(-c4cnc5ccccc5c4)ccc3ncc21
palbociclib (0.04 µM): CC(=O)c1c(C)c2cnc(Nc3ccc(N4CCNCC4)cn3)nc2n(C2CCCC2)c1=O
CP-690550 (1 µM): C[C@@H]1CCN(C(=O)CC#N)C[C@@H]1N(C)c1ncnc2[nH]ccc12
BMS-536924 (0.2 µM): Cc1cc(N2CCOCC2)cc2[nH]c(-c3c(NC[C@@H](O)c4cccc(Cl)c4)cc[nH]c3=O)nc12
ZM336372 (2 µM): Cc1ccc(NC(=O)c2cccc(N(C)C)c2)cc1NC(=O)c1ccc(O)cc1
OSI-906 (0.4 µM): C[C@]1(O)C[C@@H](c2nc(-c3ccc4ccc(-c5ccccc5)nc4c3)c3c(N)nccn32)C1
GW441756 (0.4 µM): Cn1cc(/C=C2\C(=O)Nc3cccnc32)c2ccccc21

Pair: ZM336372 + palbociclib
LB2518-MEL: 65.7
A375: 61.3
A2058: 94.6
IST-MEL1: 81.4

Pair: L-779450 + ZM336372
A375: 88.4
A2058: 93.3
IST-MEL1: 97.4

Pair: ZM336372 + GW441756
LB2518-MEL: 66.7
A375: 91.9
A2058: 113
IST-MEL1: 99.1

Pair: L-779450 + CP-690550
LB2518-MEL: 98.7
A375: 75.5
A2058: 103
IST-MEL1: 94.5

Pair: GW441756 + NVP-BEZ235
LB2518-MEL: 109
A2058: 99.2
IST-MEL1: 99.8

Pair: CP-690550 + palbociclib
LB2518-MEL: 69.6
A375: 66.9
A2058: 92.6
IST-MEL1: 88.9

Pair: NVP-BEZ235 + GW9662
LB2518-MEL: 109
A2058: 100
IST-MEL1: 99.7

Pair: OSI-906 + GW9662
LB2518-MEL: 89.1
A2058: 88.6
IST-MEL1: 105

Pair: CP-690550 + GW441756
LB2518-MEL: 96.4
A375: 105
A2058: 117
IST-MEL1: 95.1

Pair: OSI-906 + L-779450
LB2518-MEL: 99.6
A2058: 96.8
IST-MEL1: 100

Pair: L-779450 + NVP-BEZ235
LB2518-MEL: 70.6
A2058: 72.2
IST-MEL1: 86.8

Pair: GW441756 + BMS-536924
LB2518-MEL: 103
A375: 93.8
A2058: 108
IST-MEL1: 102

Pair: GW9662 + GW441756
LB2518-MEL: 99.7
A375: 118
A2058: 119
IST-MEL1: 101

Pair: ZM336372 + GW9662
LB2518-MEL: 86.2
A375: 130
A2058: 106
IST-MEL1: 101

Pair: L-779450 + BMS-536924
A375: 61.0
A2058: 105
IST-MEL1: 101

Pair: L-779450 + GW9662
LB2518-MEL: 77.3
A375: 92.4
A2058: 97.6
IST-MEL1: 96.3

Pair: NVP-BEZ235 + BMS-536924
LB2518-MEL: 92.8
A375: 58.6
A2058: 79.5
IST-MEL1: 82.1

Pair: palbociclib + NVP-BEZ235
LB2518-MEL: 70.7
A375: 46.3
A2058: 88.1
IST-MEL1: 84.9

Pair: palbociclib + BMS-536924
LB2518-MEL: 60.7
A375: 35.7
A2058: 102
IST-MEL1: 80.9

Pair: OSI-906 + BMS-536924
LB2518-MEL: 92.9
A375: 72.3
A2058: 99.1
IST-MEL1: 90.1

Pair: ZM336372 + CP-690550
LB2518-MEL: 94.6
A375: 98.6
A2058: 90.1
IST-MEL1: 93.9

Pair: ZM336372 + NVP-BEZ235
LB2518-MEL: 85.5
A375: 96.2
A2058: 95.9
IST-MEL1: 90.1

Pair: ZM336372 + OSI-906
LB2518-MEL: 73.3
A375: 66.2
A2058: 95.3
IST-MEL1: 94.7

Pair: CP-690550 + OSI-906
A375: 115
A2058: 106
IST-MEL1: 103

Pair: palbociclib + OSI-906
A375: 58.7
A2058: 97.1
IST-MEL1: 98.2

Pair: NVP-BEZ235 + CP-690550
LB2518-MEL: 109
A375: 84.3
A2058: 97.2
IST-MEL1: 98.7

Some entries from above, unchanged:

Pair	LB2518-MEL	A375	A2058	IST-MEL1
CP-690550 + palbociclib	69.6	66.9	92.6	88.9
GW441756 + NVP-BEZ235	109	-	99.2	99.8